PubChem BioAssay AID463205 (Broad Institute, 2010)
The whole screen tested about 2,400 compounds, of which about 20 (0.8%) were called active.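 How the source made its calls: active means AC50 no more than ten times the highest tested concentration, or full inhibition at every dose giving a flat fit (cut at about 30 µM in these data); inconclusive means flat fit with activity between 30% and 70%, or poor-quality invalid fit; inactive means AC50 more than ten times the top tested dose.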 Some of the results follow.

Experiment: luciferase-based ADP detection interference – biochemical, luminescence, cell-free, homogeneous, artefact control for GSK-3a inhibitor project, dose response (AID 463205);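 further: kinase-free counter-screen against the ADP-Glo detection reagents only; potency is for inhibitors that reduce the luminescence signal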
Details: Cell-free ADP-Glo detection reagents, 5 uM ADP

| SMILES | AC50 |
| --- | --- |
| COc1ccc2ccccc2c1/C=N/NC(=O)c1sc(N)c(C#N)c1C | inactive: > 30 µM |
| O=c1[nH]cnc(O)c1N=Nc1ccccc1 | inactive: > 30 µM |
| COC1(OC)N=C(N)C2(C#N)C(c3cccc(Oc4ccccc4)c3)C12C#N (stereo not given) | inactive: > 30 µM |
| O=C(COc1ccccc1F)NC1CC1 | inactive: > 30 µM |
| Cc1c(C)n(CCCN(C)C)c2ncnc(NC3CCCCC3)c12 | inactive: > 30 µM |
| N#CC1=C2SCN(c3ccccc3)CN2C(=O)CC1c1c(Cl)cccc1Cl (stereo not given) | inactive: > 30 µM |
| Cc1cnn(-c2cc(N/N=C/c3ccccc3)ncn2)c1 | inactive: > 30 µM |
| CN1/C(=C/C(=S)NC(=O)C2(C)CC2(Cl)Cl)C(C)(C)c2ccccc21 (stereo not given) | inactive: > 30 µM |
| O=C(CSc1cccs1)Nc1ccc(Cl)cc1 | inactive: > 30 µM |
| O=C(CSc1ccccc1)Nc1nnc(C2CC2)s1 | inactive: > 30 µM |
| COc1cccc(OCc2cc(C(=O)NCc3ccc4c(c3)OCO4)no2)c1 | inactive: > 30 µM |
| O=C(CSc1ccc2nnc(-c3ccccn3)n2n1)N1CCOCC1 | inactive: > 30 µM |
| COC(=O)C1=C(C)Nc2ncnn2C1c1ccccn1 (stereo not given) | inactive: > 30 µM |
| COc1ccc(OCc2nc(N)nc(Nc3ccccc3)n2)cc1 | inactive: > 30 µM |
| N#Cc1c(Nc2ccccc2)c(/C=N/N=C/c2ccccc2)c[nH]c1=O | inactive: > 30 µM |
| Cc1sc(NC(=O)CSc2nc(N)cc(N)n2)c(C#N)c1C | inactive: > 30 µM |
| NS(=O)(=O)c1ccc(Nc2nc(-c3ccccc3)cs2)cc1 | inactive: > 30 µM |
| CN(Cc1c(C(=O)N/N=C/c2ccc(O)cc2)nnn1-c1nonc1N)c1ccccc1 | inactive: > 30 µM |
| Cc1ccc(-c2nc3n(n2)Cc2ccccc2-3)cc1 | inactive: > 30 µM |
| C(=N\Nc1ncnc2sc3c(c12)CCC3)/c1ccncc1 | inactive: > 30 µM |
| Cc1ccc(-c2nc3ncccn3c2NC2CCCC2)o1 | inactive: > 30 µM |
| CC1(C)CC(=O)C=C(c2cccc(O)c2)C1 | inactive: > 30 µM |
| CCOC(=O)N1CCC(N2CCN(S(=O)(=O)c3ccc(OC)cc3)CC2)CC1 | inactive: > 30 µM |
| NC(=O)c1ccsc1NC(=O)C1CC1 | inactive: > 30 µM |

Among those listed so far, these contain two or more sulfur atoms:

| SMILES | AC50 |
| --- | --- |
| O=C(CSc1cccs1)Nc1ccc(Cl)cc1 | inactive: > 30 µM |
| O=C(CSc1ccccc1)Nc1nnc(C2CC2)s1 | inactive: > 30 µM |
| Cc1sc(NC(=O)CSc2nc(N)cc(N)n2)c(C#N)c1C | inactive: > 30 µM |
| NS(=O)(=O)c1ccc(Nc2nc(-c3ccccc3)cs2)cc1 | inactive: > 30 µM |

(more compounds)

| SMILES | AC50 |
| --- | --- |
| CCOC1(OCC)N=C(N)C2(C#N)C(c3cccc(C)c3)C12C#N (stereo not given) | inactive: > 30 µM |
| O=C(CSc1nc2[nH]ncc2c(=O)n1-c1ccccc1)NCc1cccs1 | inactive: > 30 µM |
| O=c1[nH]nc(SCCS(=O)(=O)c2ccc(F)cc2)n1-c1ccccc1 | inactive: > 30 µM |
| COc1ccc(-c2noc(CCC(=O)Nc3nc4ccccc4s3)n2)cc1 | inactive: > 30 µM |
| COc1ccc(CCNc2cc(C)nc(N)n2)cc1OC | inactive: > 30 µM |
| Cc1cc(C(=O)N/N=C/c2cc(N=Nc3ccccc3)ccc2O)n[nH]1 | inactive: > 30 µM |
| COc1ccccc1Nc1nc(NCCCCO)nc(N2CCCC2)n1 | inactive: > 30 µM |
| CCCC(=O)NNC(=O)c1c(O)c2ccccc2[nH]c1=O | inactive: > 30 µM |
| COc1ccc(C(=O)OCC(=O)Nc2ncc([N+](=O)[O-])s2)cc1OC | inactive: > 30 µM |
| COc1cccc(-c2cc(C(=O)N3CCN(c4ccccc4OC)CC3)no2)c1 | inactive: > 30 µM |
| COc1cc(O)c(NC(C)=O)c2nonc12 | inactive: > 30 µM |
| C=CCc1cccc(/C=N/n2c(C)nnc2C)c1O | inactive: > 30 µM |
| O=C(CSc1nc2nc(-c3cccs3)cc(C(F)(F)F)c2c(=O)[nH]1)Nc1ccc(F)c(F)c1 | inactive: > 30 µM |
| Cc1ccc(CNc2ccc([N+](=O)[O-])cc2C(N)=O)cc1 | inactive: > 30 µM |
| Cc1csc(NC(=O)/C=C/c2ccc3c(c2)OCO3)n1 | inactive: > 30 µM |
| Cc1ccc(CSCCNC(=O)c2ccc(C)cc2)cc1 | inactive: > 30 µM |
| COC(=O)c1cc(OC)nc2ccc(Br)cc12 | inactive: > 30 µM |
| CNc1ccc(/C=C/C(=O)c2ccc3c(c2)OCCO3)cc1[N+](=O)[O-] | inactive: > 30 µM |
| COC(=O)c1ccc(CSc2nnc(-c3ccncc3)n2Cc2ccccc2)o1 | inactive: > 30 µM |
| COC(=O)c1ccc(CSc2ccc3nnc(-c4ccc(OC)cc4)n3n2)o1 | inactive: > 30 µM |
| CC(C)(C)NC(=O)/C(=C/c1ccccc1F)NC(=O)c1ccc([N+](=O)[O-])cc1 | inactive: > 30 µM |
| Cn1ccnc1SCC(=O)Nc1ccc(Cl)cn1 | inactive: > 30 µM |
| CC(C)(C)c1ccc(CSc2nnc(-c3ccccc3NC(=O)c3ccccc3)o2)cc1 | inactive: > 30 µM |
| CC1CCN(Cc2c(C(=O)N/N=C/c3ccc(C(C)(C)C)cc3)nnn2-c2nonc2N)CC1 | inactive: > 30 µM |

| SMILES | AC50 |
| --- | --- |
| O=c1[nH]c2c(s1)C(c1ccco1)C1C3CCC(C3)C1S2 (stereo not given) | inactive: > 30 µM |
| C=CCN=C1NN=C(c2ccc3c(c2)OCCO3)CS1 | inactive: > 30 µM |
| Cc1cc2nc(-c3ccc(SCC(=O)NC(C)C)nc3)[nH]c2cc1C | inactive: > 30 µM |
| CC(=O)C1C(c2ccc(C)cc2)c2c(n[nH]c2C)CC1(C)O (stereo not given) | inactive: > 30 µM |
| CCCC(=O)Nc1nn(CCC)c2nc3ccccc3cc12 | inactive: > 30 µM |
| Cc1ccc(NC(=O)CSCc2nc3c(nnn3Cc3ccc(F)cc3)c(=O)[nH]2)c(C)c1 | inactive: > 30 µM |
| NC(=O)c1cc(Br)cc2c3c([nH]c12)CCCC3 | inactive: > 30 µM |
| Cc1c(C(=O)N2CCN(c3ccccc3)CC2)oc2c(Cl)cccc12 | inactive: > 30 µM |
| COc1ccccc1-n1c(=O)c2c3c(sc2n2c(=S)[nH]nc12)CCC3 | inactive: > 30 µM |
| O=[N+]([O-])c1cc(C(F)(F)F)ccc1NCCCN1CCOCC1 | inactive: > 30 µM |
| Cc1cccc(/C(N)=N/OC(=O)c2ccc3c(c2)OCO3)c1 | active: 27.3 µM |
| CC(=O)c1sc(NC(=O)c2ccc3c(c2)OCO3)nc1C | inactive: > 30 µM |
| CCOc1cccc2sc(=NC(=O)c3ccco3)n(CC(=O)OC)c12 | inactive: > 30 µM |
| COc1ccc([N+](=O)[O-])cc1NC(=O)CCN1CCN(CCO)CC1 | inactive: > 30 µM |
| CCC(=O)NCCNc1ccc([N+](=O)[O-])cn1 | inactive: > 30 µM |
| CC1(C)Cc2cccc(C(=O)NCc3ccco3)c2O1 | inactive: > 30 µM |
| CC12CCC(C(=O)Nc3ncc([N+](=O)[O-])s3)(OC1=O)C2(C)C (stereo not given) | inactive: > 30 µM |
| Nc1ncnc2c1ncn2[C@@H]1O[C@H](CNCc2ccccc2)[C@@H](O)[C@H]1O | inactive: > 30 µM |
| c1ccc2c(CCNc3ncnc4nc[nH]c34)c[nH]c2c1 | inactive: > 30 µM |
| NC(=O)c1ccc(NC(=O)CSc2nnc(-c3ccc4c(c3)OCO4)o2)cc1 | inactive: > 30 µM |
| CCOc1cccc(-c2c(C(=O)N/N=C/c3cccnc3)nnn2-c2nonc2N)c1 | inactive: > 30 µM |
| COc1ccc(C(=O)O/N=C(\N)c2ccccn2)c(OC)c1 | inactive: > 30 µM |
| CCN1CCN(Cc2c(O)ccc3c2O/C(=C\C=C\c2ccccc2OC)C3=O)CC1 | inactive: > 30 µM |
| CCCCc1[nH]c(=O)c(C#N)c2c1CCCC2 | inactive: > 30 µM |

| SMILES | AC50 |
| --- | --- |
| C[C@@H](NC(=O)c1[nH]cnc1C(=O)Nc1ccon1)c1ccccc1 | inactive: > 30 µM |
| O=C(O)c1ccc(Nc2nc(-c3cccnc3)nc3ccccc23)cc1 | inactive: > 30 µM |
| Cc1nn(C)c(C)c1CN(C)S(=O)(=O)c1ccc(F)cc1 | inactive: > 30 µM |
| CC(=O)N1CCc2c(sc(NC(=O)c3cccc(N4C(=O)CCC4=O)c3)c2C(N)=O)C1 | inactive: > 30 µM |
| Cc1ccc(NC(=O)c2cc(-n3cnnc3)ccc2Cl)cc1 | inactive: > 30 µM |
| CCC(CC)c1nnc(NC(=O)Oc2ccccc2)s1 | inactive: > 30 µM |
| Cc1cc2nc(-c3cccnc3SCC(=O)NCc3ccco3)[nH]c2cc1C | inactive: > 30 µM |
| Cc1cccc(C)c1OCC(=O)Nc1ccc2c(c1)C(=O)NC2=O | inactive: > 30 µM |
| CC(=O)Nc1sc2c(c1C(N)=O)CCC2 | inactive: > 30 µM |
| CCOc1ccc(-c2nc(N)ncc2-c2ccccc2)c(O)c1 | inactive: > 30 µM |
| CN(C)CCCNS(=O)(=O)c1ccc(-n2nnc3ccccc32)c([N+](=O)[O-])c1 | inactive: > 30 µM |
| COc1ccc(OC)c(/C=C2\Oc3cc(OCC(=O)N4CC(O)C[C@H]4C(=O)O)ccc3C2=O)c1 (stereo not given in full) | inactive: > 30 µM |
| COc1ccc2nc(NC(=O)CCc3cc(OC)c(OC)c(OC)c3)sc2c1 | inactive: > 30 µM |
| COc1ccc(S(=O)(=O)N[C@H](C(=O)O)C(C)C)cc1 | inactive: > 30 µM |
| Nc1c(C(=O)O)ccc2c1C(=O)c1ccccc1C2=O | inactive: > 30 µM |
| COC(=O)c1sc2cnccc2c1N | inactive: > 30 µM |
| CC1CC(=O)c2cnc(NCC3CCCO3)nc2C1 (stereo not given) | inactive: > 30 µM |
| CC(C)c1c(C(=O)N/N=C/c2cccnc2)nnn1-c1nonc1N | inactive: > 30 µM |
| CN(C)C=NC(=O)/C(C#N)=C/c1ccccc1 | inactive: > 30 µM |
| Cc1cc(=O)[nH]c2ccccc12 | inactive: > 30 µM |
| COc1ccc(-c2nc(N)n[nH]2)cc1 | inactive: > 30 µM |
| NC(=O)c1cn(-c2ccccc2)nc1-c1cccnc1 | inactive: > 30 µM |
| CC(=O)c1sc(Nc2cccc(C)c2)nc1C | inactive: > 30 µM |

Copied from the list.
For AC50, `COc1ccc([N+](=O)[O-])cc1NC(=O)CCN1CCN(CCO)CC1` is listed with inactive: > 30 µM
For AC50, `O=C(CSc1cccs1)Nc1ccc(Cl)cc1` is listed with inactive: > 30 µM
For AC50, `NC(=O)c1ccc(NC(=O)CSc2nnc(-c3ccc4c(c3)OCO4)o2)cc1` is listed with inactive: > 30 µM
